From PubChem BioAssay (NCATS)
The list shows a part of the results. Further columns of the screen follow, without active or inactive calls. The list favours compounds with an active or inconclusive main result. Where a SMILES comes first, the peptide text is derived from it. The star is where a group is joined. Cbz = O=C(OCc1ccccc1)*

assay: qHTS for identification of novel therapeutic agents for treatment of microphthalmiaassociated transcription factor (MiT) renal cell carcinoma (RCC) (AID 1963991); details: TFE3-RCC UOK109 viability, CellTiter-Glo, 48 h; measured here: UOK109 Z-AUC; stronger effect = lower value
Procedure, shortened: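 Three TFE3-fusion RCC lines (UOK109, UOK124, UOK145), 500 cells/well in complete medium, were treated with MIPE 4.0 compounds for 48 hours at 37 C. Viability was by CellTiter-Glo luminescence, normalized to DMSO (100%) and empty wells (0%); curves fitted over 11 concentrations.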

| Compound | z-score |
| --- | --- |
| COc1cc2c(cc1Cc1cccc(Cl)c1F)c(=O)c(C(=O)O)cn2[C@H](CO)C(C)C | 0.426 |
| Nc1ncnc2c1ncn2[C@@H]1O[C@H](CO)[C@@H](O)[C@@H]1O | -0.582 |
| C[C@H]1c2cccc(O)c2C(O)=C2C(=O)[C@]3(O)C(O)=C(C(N)=O)C(=O)[C@@H](N(C)C)[C@@H]3[C@@H](O)[C@@H]21 | -0.115 |
| NC(=O)c1cccc2cn(-c3ccc([C@@H]4CCCNC4)cc3)nc12 | -0.393 |
| CC(C)(C)OC(=O)Nc1ccc(-c2cc(C(=O)NCCCCCCC(=O)NO)no2)cc1 | -0.828 |
| Nc1nc(=S)c2[nH]cnc2[nH]1 | 0.0287 |
| CC(C)(Oc1ccc(C2CC2(Cl)Cl)cc1)C(=O)O (configuration not stated) | -0.111 |
| CC(C)C[C@@H](C=O)NC(=O)[C@H](CC(C)C)NC(=O)[C@H](CC(C)C)NC(=O)OCc1ccccc1 (Cbz-Leu-Leu-Leu-aldehyde) | -0.762 |
| COc1ccc2ccc(=O)oc2c1CC=C(C)C | 0.992 |
| CCS(=O)(=O)Nc1ccc2[nH]c(O)c(C(=Nc3ccc(CN4CCCCC4)cc3)c3ccccc3)c2c1 | -0.705 |
| CC(C)[C@H](O)C(=O)N[C@@H](C)C(=O)N[C@@H]1C(=O)N(C)CCc2ccccc21 | -0.024 |
| CC(C)=CC[C@@H](O)C1=CC(=O)c2c(O)ccc(O)c2C1=O | -0.252 |
| O=c1[nH]c(=O)n([C@H]2C[C@@H](O)[C@@H](CO)O2)cc1C=CBr | -0.0496 |
| CCN(CCO)CCCC(C)Nc1ccnc2cc(Cl)ccc12 (configuration not stated) | -0.337 |
| C[C@H](NC(=O)Cc1cc(F)cc(F)c1)C(=O)N[C@H](C(=O)OC(C)(C)C)c1ccccc1 | 0.236 |
| O=C(O)CCC1CCC(c2cc(F)ccc2F)(S(=O)(=O)c2ccc(Cl)cc2)CC1 (configuration not stated) | -0.275 |
| Cc1ccc2c(=O)c3cccc(CC(=O)O)c3oc2c1C | 0.829 |
| C=CCc1ccc(O)c(-c2ccc(O)c(CC=C)c2)c1 | -0.601 |
| C[C@]1(c2nc3c(C(N)=O)cccc3[nH]2)CCCN1 | -0.286 |
| Fc1ccc(CNc2ncnc3ccc(F)cc23)cc1 | 0.104 |
| C[C@H](NC(=O)[C@@H](O)c1cc(F)cc(F)c1)C(=O)N[C@@H]1C(=O)N(C)c2ccccc2-c2ccccc21 | 0.0978 |

same assay, conditions: TFE3-RCC viability, CellTiter-Glo, 48 h; measured here: UOK124 Z-AUC; stronger effect = lower value

| Compound | z-score |
| --- | --- |
| COc1cc2c(cc1Cc1cccc(Cl)c1F)c(=O)c(C(=O)O)cn2[C@H](CO)C(C)C | 0.239 |
| Nc1ncnc2c1ncn2[C@@H]1O[C@H](CO)[C@@H](O)[C@@H]1O | 0.902 |
| C[C@H]1c2cccc(O)c2C(O)=C2C(=O)[C@]3(O)C(O)=C(C(N)=O)C(=O)[C@@H](N(C)C)[C@@H]3[C@@H](O)[C@@H]21 | 0.197 |
| NC(=O)c1cccc2cn(-c3ccc([C@@H]4CCCNC4)cc3)nc12 | 0.611 |
| CC(C)(C)OC(=O)Nc1ccc(-c2cc(C(=O)NCCCCCCC(=O)NO)no2)cc1 | -0.933 |
| Nc1nc(=S)c2[nH]cnc2[nH]1 | -1.11 |
| CC(C)(Oc1ccc(C2CC2(Cl)Cl)cc1)C(=O)O (configuration not stated) | 0.933 |
| CC(C)C[C@@H](C=O)NC(=O)[C@H](CC(C)C)NC(=O)[C@H](CC(C)C)NC(=O)OCc1ccccc1 (Cbz-Leu-Leu-Leu-aldehyde) | -3.71 |
| COc1ccc2ccc(=O)oc2c1CC=C(C)C | 0.427 |
| CCS(=O)(=O)Nc1ccc2[nH]c(O)c(C(=Nc3ccc(CN4CCCCC4)cc3)c3ccccc3)c2c1 | -1.17 |
| CC(C)[C@H](O)C(=O)N[C@@H](C)C(=O)N[C@@H]1C(=O)N(C)CCc2ccccc21 | 0.289 |
| CC(C)=CC[C@@H](O)C1=CC(=O)c2c(O)ccc(O)c2C1=O | -1.05 |
| O=c1[nH]c(=O)n([C@H]2C[C@@H](O)[C@@H](CO)O2)cc1C=CBr | 0.701 |
| CCN(CCO)CCCC(C)Nc1ccnc2cc(Cl)ccc12 (configuration not stated) | 0.615 |
| C[C@H](NC(=O)Cc1cc(F)cc(F)c1)C(=O)N[C@H](C(=O)OC(C)(C)C)c1ccccc1 | 0.333 |
| O=C(O)CCC1CCC(c2cc(F)ccc2F)(S(=O)(=O)c2ccc(Cl)cc2)CC1 (configuration not stated) | 0.178 |
| Cc1ccc2c(=O)c3cccc(CC(=O)O)c3oc2c1C | -2.01 |
| C=CCc1ccc(O)c(-c2ccc(O)c(CC=C)c2)c1 | 0.262 |
| C[C@]1(c2nc3c(C(N)=O)cccc3[nH]2)CCCN1 | 0.505 |
| Fc1ccc(CNc2ncnc3ccc(F)cc23)cc1 | 0.937 |
| C[C@H](NC(=O)[C@@H](O)c1cc(F)cc(F)c1)C(=O)N[C@@H]1C(=O)N(C)c2ccccc2-c2ccccc21 | 0.56 |
